# Measured values: patent US20220283177A1, “METHOD FOR DETECTING INTERACTION AND AFFINITY BETWEEN LIGAND AND PROTEIN” (DALIAN INSTITUTE OF CHEMICAL PHYSICS, CHINESE ACADEMY OF …, priority 2019, published 2022)
# Like-named read-outs stand apart in the source and are kept apart here.
# What was measured:
# [1] = tested on: protein kinases in 293T cell lysate; settings: 20 μM staurosporine
# [2] = tested on: protein kinases in 293T cell lysate; assay: CA-based SIP with TMT10 labeling, proteome-wide target screening of staurosporine; settings: 20 μM staurosporine
# [3] = second threshold, printed ΔDistance≥0.5 / ≤0.5
smiles,measurement,setting,value
CN[C@@H]1C[C@H]2O[C@@](C)([C@@H]1OC)n1c3ccccc3c3c4c(c5c6ccccc6n2c5c31)C(=O)NC4 [staurosporine],number of protein kinases among stabilized proteins,[1]; 15% A.E.A.,7
same,number of protein kinases among stabilized proteins,[1]; 16% A.E.A.,5
same,number of protein kinases among stabilized proteins,[1]; 17% A.E.A.,4
same,share of quantified protein kinases significantly stabilized after binding of drug (9/19),[1]; three A.E.A. concentrations combined,47.37%
same,non-protein kinases share of total candidate binding proteins,[2]; filter ΔDistance≥0.5 / ≤0.5,32%
same,protein kinases among candidate proteins,[2]; filter ΔDistance≥0.5 / ≤0.5,36
same,total candidate proteins identified,[2]; filter ΔDistance≥0.5 / ≤0.5,53
same,candidate proteins obtained,[2]; filter ΔDistance≥0.7 / ≤0.7,33
same,non-protein kinases share of total candidate binding proteins,[2]; [3],12%
same,protein kinases among candidate binding proteins,[2]; [3],29
same,total candidate binding proteins identified,[2]; [3],33
same,stabilized proteins commonly identified in CA-based SIP and Savitski-TPP,"[2]; ΔDistance≥0.7, 17 were protein kinases",19
same,proteins only identified in the SIP method but not in Savitski-TPP,"[2]; ΔDistance≥0.7, including 12 protein kinases",14
